{
  "source": "PubChem BioAssay AID602313",
  "about": "(National Center for Advancing Translational Sciences (NCATS), 2012)",
  "note": "Hit rate of the full screen: of about 390,000 compounds, about 760 (0.19%) were called active. This list was built around the results that the source calls inconclusive (neither active nor inactive); the mix of calls is not that of the screen. Calls come from the whole dose curve; as a rule, active = well fitted inhibition curve with a large enough effect; inconclusive = small, poorly fitted or top-dose-only effect; inactive = flat fitted curve, though single readings scatter. Potencies beside an inconclusive call are fits to weak or partial responses and may not hold up. Potency is the fitted concentration of half-maximal effect.",
  "data": [
    {"experiment": "qHTS for Inhibitors of Vif-A3F Interactions: qHTS; note: nearly all actives have a fitted effect of over 65% in size; for activity, negative = active: % of control where 0% means no effect", "conditions": "HeLa A3F-eYFP + Vif (tagged APOBEC3F with the HIV-1 protein that degrades it), YFP fluorescence increase; series mostly up to 46.1 µM; activity, negative = active: at the top concentration", "text": "The recent discovery and characterization of host restriction factors, which provide a potent defense to invading retroviruses, has provided new targets for antiviral drug development. APOBEC3G (A3G) and APOBEC3F (A3F) are potent cytidine deaminases that block HIV-1 replication; HIV-1 expresses the Vif protein, which counteracts A3G and A3F by binding to them and inducing their proteasomal degradation. The Vif-A3G and Vif-A3F interactions provide two potential targets for development of small molecules which can interfere with the ability of Vif to degrade A3G or A3F. […] To identify inhibitors that can interfere with Vif mediated degradation of A3G and A3F, we have developed Hela cell lines that stably express A3G or A3F tagged with eYFP at the C-terminal end (A3G-eYFP or A3F-eYFP, respectively) and Vif. In the absence of an inhibitor, Vif induces degradation of A3G-eYFP and A3F-eYFP, and the cells are not fluorescent. In the presence of an inhibitor, it is expected that Vif will be unable to degrade A3G-eYFP and/or A3F-eYFP, resulting in an increase in yellow fluorescence. In this assays Vif A3F was screened against the Molecular Library Small Molecule Repository (MLSMR). NIH Chemical Genomics Center [NCGC] NIH Molecular Libraries Probe Centers Network [MLPCN] MLPCN Grant: MH093245 Assay Submitter (PI): Vinay Pathak, National Cancer Institute\n5 uL of 700 cells/well of A3F-YFP cells are dispensed into black, clear bottom plates. The plates are incubated overnight at 37 deg C. 23 nL of compounds are added by pintool. The plates are incubated overnight at 37 deg C and then read on the TTP Acumen (Ex 488/ Em 500-530).", "values": [
      {"smiles": "CCc1ccc(CN(C)C(=O)C2CCC(=O)N(CC3CCCCC3)C2)cc1", "note": "(stereo not drawn)", "Potency": "inconclusive: 11.2 µM [inhibitor, single point]"},
      {"smiles": "CCOC(=O)c1c(NC(=O)c2cc(-c3ccc(Cl)cc3)on2)sc(C)c1C", "activity, negative = active": "inactive: 0.69%"},
      {"smiles": "COc1cc(/C=C2/C(=N)N3C(=NC2=O)SN=C3S(C)(=O)=O)ccc1OC(=O)c1ccco1", "Potency": "inconclusive: 22.4 µM [inhibitor, single point]"},
      {"smiles": "Cc1noc(C)c1S(=O)(=O)Nc1ccc2c(c1)C(=O)N([C@@H](C)CO)C[C@H](C)[C@@H](CN(C)Cc1ccc(C(F)(F)F)cc1)OCCCC[C@H](C)O2", "Potency": "inconclusive: 17.8 µM [inhibitor, single point]"},
      {"smiles": "Cn1ncc(Br)c1C(=O)NC(=S)N1CCN(c2ccccn2)CC1", "Potency": "inconclusive: 25.1 µM [inhibitor, single point]"},
      {"smiles": "C#CCOCCOCCOCCNc1nc(N2CCN(C(=O)Cn3cc(CCCN=C(N)N)nn3)CC2)nc(N2CCN(C(=O)[C@H](CCCCN)n3cc(CC(C)O)nn3)CC2)n1", "note": "(stereo partly drawn)", "activity, negative = active": "inactive: 4.43%"},
      {"smiles": "CCN(CC)CCn1c(SCC(=O)Nc2ccc3c(c2)CCC3)nc2ccccc2c1=O", "Potency": "inconclusive: 25.1 µM [inhibitor, single point]"},
      {"smiles": "O=C(/C=C/c1cccs1)NC(=S)Nc1ccccc1", "Potency": "inconclusive: 35.5 µM [inhibitor, single point]"},
      {"smiles": "Cc1ccc(Cl)cc1NC(=O)Cn1ncc2c(C)n(Cc3ccccc3F)c(C)c2c1=O", "Potency": "inconclusive: 35.5 µM [inhibitor, single point]"},
      {"smiles": "Cc1ccc(C2C=C(c3ccc(Cl)cc3)Nc3nc(NC(=O)c4ccco4)nn32)cc1", "note": "(stereo not drawn)", "Potency": "inconclusive: 35.5 µM [inhibitor, single point]"},
      {"smiles": "N#C/C(=C(/O)CCl)c1nc2c(s1)CCc1ccccc1-2", "Potency": "inconclusive: 15.8 µM [inhibitor, partial curve, poor fit]"},
      {"smiles": "COc1ccccc1NC(=O)c1ccc(NC(=O)COC(=O)C2(C)CC2(Cl)Cl)cc1", "note": "(stereo not drawn)", "activity, negative = active": "inactive: 12.2%"},
      {"smiles": "O=C(Nc1ccc(Cl)c(Cl)c1)c1ccc(Cn2c(=O)[nH]c3ccsc3c2=O)cc1", "Potency": "inconclusive: 25.1 µM [inhibitor, single point]"},
      {"smiles": "Cc1ccc(S(=O)(=O)c2nc(-c3ccccc3Br)oc2N(C)C)cc1", "activity, negative = active": "inactive: 11.6%"},
      {"smiles": "COc1cc(NC(=O)Cn2c(=O)n(C(C)C)c(=O)c3oc4ccccc4c32)cc(OC)c1", "activity, negative = active": "inactive: 8.26%"},
      {"smiles": "CC(C)n1c(NCc2ccccc2O)nc2ccccc21", "Potency": "inconclusive: 1.58 µM [inhibitor, partial curve, poor fit]"},
      {"smiles": "Cc1sc2nc(CSCC(=O)Nc3ccccc3C#N)[nH]c(=O)c2c1C", "Potency": "active: 12.6 µM"},
      {"smiles": "CCNC(=S)N/N=C(\\C)c1cccc([N+](=O)[O-])c1", "Potency": "inconclusive: 20 µM [inhibitor, partial curve, poor fit]"},
      {"smiles": "CC1(C)OC(=O)C(=Cc2ccc(-c3ccc(S(N)(=O)=O)cc3)o2)C(=O)O1", "activity, negative = active": "inactive: -0.0888%"},
      {"smiles": "CCc1nnc(NS(=O)(=O)c2ccc(NC(=S)NC(=O)c3ccc(Br)cc3)cc2)s1", "Potency": "inconclusive: 6.31 µM [inhibitor, single point]"},
      {"smiles": "COc1cc(CN2CCN(Cc3ccco3)CC2)cc(OC)c1", "activity, negative = active": "inactive: -24.5%"},
      {"smiles": "COC(=O)c1sc2nc(CSc3ccc(Br)cc3)[nH]c(=O)c2c1C", "Potency": "active: 11.2 µM"},
      {"smiles": "Oc1ccc(Nc2nc(-c3ccccc3F)nc3ccccc23)cc1", "activity, negative = active": "inactive: 0.76%"},
      {"smiles": "COc1cc(C(=O)Nc2nc(-c3cc(C)ccc3C)c(C)s2)ccc1OCC(=O)Nc1ccc(F)cc1", "activity, negative = active": "inactive: -14.3%"},
      {"smiles": "O=C(N/N=C/c1ccccc1O)c1cccc(C(F)(F)F)c1", "Potency": "inconclusive: 3.16 µM [inhibitor, single point]"},
      {"smiles": "Cc1ccc2c(c1)c(N=Nc1cccc(C(=O)O)c1)c(O)n2C", "Potency": "inconclusive: 35.5 µM [inhibitor, single point]"},
      {"smiles": "Oc1ccc(-c2csc(-c3cccnc3)n2)cc1O", "activity, negative = active": "inactive: -25.5%"},
      {"smiles": "O=C1/C(=C/Nc2ccc3c(c2)OCO3)CCc2ccccc21", "Potency": "inconclusive: 25.1 µM [inhibitor, single point]"},
      {"smiles": "O=C(Nc1ccc2oc(-c3ccc(Cl)c(Cl)c3)nc2c1)c1ncn[nH]1", "Potency": "inconclusive: 35.5 µM [inhibitor, single point]"},
      {"smiles": "COC(=O)CCSCc1cn2cc(Cl)ccc2n1", "Potency": "inconclusive: 5.62 µM [inhibitor, single point]"},
      {"smiles": "S=C(NCC1CCCCC1)Nc1ccc(Oc2ccccc2)cc1", "activity, negative = active": "inactive: -29.9%"},
      {"smiles": "Cc1ncc(CO)c2c1Oc1nc(-c3ccccc3)nc(SCC(=O)Nc3cccc(O)c3)c1C2", "Potency": "inconclusive: 35.5 µM [inhibitor, single point]"},
      {"smiles": "COc1ccccc1/C(C)=N/NC(=S)NCc1ccccc1", "Potency": "inconclusive: 5.62 µM [inhibitor, single point]"},
      {"smiles": "C/C(CCc1ccc2c(c1)OCO2)=N\\NC(=S)NC(C)C", "Potency": "active: 12.6 µM"},
      {"smiles": "CSc1nc2c(c(=O)[nH]1)C(c1ccc(Br)cc1)CC(=O)N2", "note": "(stereo not drawn)", "Potency": "inconclusive: 3.16 µM [inhibitor, single point]"},
      {"smiles": "COC(=O)Nc1sccc1C(=O)Nc1sccc1C(=O)OC", "Potency": "inconclusive: 22.4 µM [inhibitor, partial curve, poor fit]"},
      {"smiles": "Cc1ccc(CNC(=O)CCS(=O)(=O)c2ccc(Cl)cc2)cc1", "activity, negative = active": "inactive: -18.1%"},
      {"smiles": "O=C(CCn1c(=O)c2ccccc2n(Cc2cccc([N+](=O)[O-])c2)c1=O)N1CCc2ccccc2C1", "activity, negative = active": "inactive: -8.22%"},
      {"smiles": "COc1cc(OC)cc(C(=O)Nc2ccc3nc(N4CCC(C)CC4)cc(C)c3c2)c1", "activity, negative = active": "inactive: -3.19%"},
      {"smiles": "CC(=O)NN1C(=O)/C(=C\\c2ccc(Br)o2)SC1=S", "Potency": "inconclusive: 22.4 µM [inhibitor, single point]"},
      {"smiles": "Cc1ccc(-c2c(C#N)c(N)nc3c2CCCC3)o1", "Potency": "inconclusive: 35.5 µM [inhibitor, single point]"},
      {"smiles": "CCc1nc(NCCc2ccccn2)c2nnn(Cc3ccccc3F)c2n1", "activity, negative = active": "inactive: -1.13%"},
      {"smiles": "COC(=O)c1ccccc1NCc1cc(=O)oc2cc(O)c(O)cc12", "Potency": "inconclusive: 35.5 µM [inhibitor, single point]"},
      {"smiles": "COc1cc(-c2noc(-c3ccc(NCCc4ccccc4)c([N+](=O)[O-])c3)n2)cc(OC)c1OC", "Potency": "inconclusive: 3.16 µM [inhibitor, partial curve, poor fit]"},
      {"smiles": "CCCN(CCC)CC(O)Cn1cc(/C=C/C(=O)c2cccs2)c2ccccc21", "note": "(stereo not drawn)", "Potency": "inconclusive: 35.5 µM [inhibitor, single point]"},
      {"smiles": "CCOC(=O)C1=C(C)N(CC(C)C)C(=O)/C1=C\\c1cccs1", "Potency": "inconclusive: 10 µM [inhibitor, partial curve]"},
      {"smiles": "CC(C)Oc1ccc(CNC(=O)Cc2ccc(NC(=O)N3CCSc4ncccc43)cc2)cc1", "activity, negative = active": "inactive: 0.567%"},
      {"smiles": "Fc1ccccc1N1CCN(CC2CC3C=CC2C3)CC1", "note": "(stereo not drawn)", "activity, negative = active": "inactive: -1.4%"},
      {"smiles": "CCc1nc2oc3ccccc3c(=O)c2cc1C(=O)OC", "Potency": "inconclusive: 7.94 µM [inhibitor, partial curve, poor fit]"},
      {"smiles": "O=C(NCCc1ccc(Cl)cc1)c1ccc2nc(Cc3ccccc3)oc2c1", "Potency": "inconclusive: 3.55 µM [inhibitor, full curve, poor fit]"},
      {"smiles": "Cc1ccc(C(=O)N/C(=C\\c2ccc(-c3ccc([N+](=O)[O-])cc3)o2)C(=O)NC2CCS(=O)(=O)C2)cc1", "note": "(stereo not drawn)", "Potency": "inconclusive: 22.4 µM [inhibitor, single point]"},
      {"smiles": "CC(C)Cc1nnc(NC(=O)CS(=O)(=O)Cc2ccccc2)s1", "activity, negative = active": "inactive: -3.92%"},
      {"smiles": "O=C(NC(=S)Nc1ccccn1)c1ccc(-c2ccccc2)cc1", "Potency": "inconclusive: 35.5 µM [inhibitor, single point]"},
      {"smiles": "CCCCCn1c(=O)[nH]c2cc(C(=O)NCc3ccc(C)cc3)ccc2c1=O", "activity, negative = active": "inactive: -8.81%"},
      {"smiles": "CCN(CC)c1ccc2cc(-c3nnc(-c4cccc(Cl)c4)o3)c(=O)oc2c1", "Potency": "inconclusive: 0.282 µM [inhibitor, full curve, poor fit]"},
      {"smiles": "CC(=O)Nc1ccccc1C", "activity, negative = active": "inactive: 3.04%"},
      {"smiles": "CC(C)OC(=O)c1nn2c(C(F)(F)F)cc(-c3ccc(Br)o3)nc2c1Br", "Potency": "inconclusive: 22.4 µM [inhibitor, partial curve, poor fit]"},
      {"smiles": "CCOC(=O)Cc1csc(NC(=O)/C=C/c2ccco2)n1", "activity, negative = active": "inactive: 3.26%"},
      {"smiles": "O=C(COc1ccc(F)cc1)NCC1(N2CCCCC2)CCCCC1", "Potency": "inconclusive: 17.8 µM [inhibitor, partial curve, poor fit]"},
      {"smiles": "O=C(CCl)N1c2ccccc2Oc2ccc3ccccc3c21", "Potency": "inconclusive: 12.6 µM [inhibitor, partial curve, poor fit]"},
      {"smiles": "CC1CCCCN1CCNC(=O)c1ccc2c(=O)n(CCc3ccccc3)c(=O)[nH]c2c1", "note": "(stereo not drawn)", "activity, negative = active": "inactive: -11.7%"},
      {"smiles": "O=C(CN(C(=O)CNC(=O)c1ccco1)c1ccc2c(c1)OCCO2)NC1CCCCC1", "Potency": "inconclusive: 35.5 µM [inhibitor, single point]"},
      {"smiles": "O=C(CCc1nc2ccccc2c(=O)[nH]1)Nc1nnc(SCc2ccc(Cl)cc2)s1", "Potency": "inconclusive: 7.08 µM [inhibitor, partial curve, poor fit]"},
      {"smiles": "CCOc1ccc(CCNC(=O)CSc2cc(=O)n(C)c3ccccc23)cc1OCC", "Potency": "inconclusive: 5.62 µM [inhibitor, single point]"},
      {"smiles": "Cc1cc(C(=O)COC(=O)c2cccnc2Cl)c(C)n1CC1CCCO1", "note": "(stereo not drawn)", "activity, negative = active": "inactive: 3%"},
      {"smiles": "O=C(C[n+]1ccc2ccccc2c1)Nc1cc(C(F)(F)F)ccc1Cl", "Potency": "inconclusive: 2.82 µM [inhibitor, full curve, poor fit]"},
      {"smiles": "NC(=O)CC(NC(=O)Cc1ccc(Br)cc1)c1ccc(NCCc2ccc(F)cc2)c([N+](=O)[O-])c1", "note": "(stereo not drawn)", "activity, negative = active": "inactive: 2.18%"},
      {"smiles": "O=C(CNC(=O)c1ccc(Cl)cc1Cl)OCCOc1ccccc1F", "Potency": "inconclusive: 2.82 µM [inhibitor, single point]"}
    ]}
  ]
}
